Results deposited as PubChem BioAssay AID1224826 (NIAID, 2016).
Assay: 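Genes that change LPS-induced Tnf promoter activity in mouse macrophages when knocked down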 (primary screen). Cell system: RAW264.7 G9 macrophages from mouse bearing reporters for p65 (GFP) and the Tnf promoter (mCherry). Reagents: siRNA pool against mouse genes, 100 nM. Timing: 16 h of LPS stimulation, after 2 days of siRNA transfection. Conditions: bacterial lipopolysaccharide (Salmonella minnesota R595), 10 ng/ml. Measured: 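Imaged Tnf reporter mCherry in nuclei, minus background, normalised per plate to the median and expressed as robust z-scores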. Direction: Tnf reporter robust z-score: higher = stronger Tnf promoter reporter signal after LPS. Hit rule: 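Called active when robust z-score is at most -1.3, matching the median of the Tlr4 knock-down control, or over 3; control wells and wells with under 50 cells never active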. Calls: active = Tnf reporter clearly lowered or raised; inactive = no clear change in Tnf reporter.
This is one part, drawn at random, of about 17,000 reagents tested. About 1,110 of all reagents (6.6%) were called active. 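Active means lowered or raised reporter signal; replicate intensities are raw and not normalised per plate.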 Further read-outs or replicates are left out here.

The first 2 entries, ahead of the listing:
gene symbol | Tnf reporter robust z-score | fewer than 50 cells in well | call
Or1e1f (olfactory receptor family 1 subfamily E member 1F) | -0.39 | enough cells in well | inactive
Or8g36 (olfactory receptor family 8 subfamily G member 36) | 1.5 | enough cells in well | inactive

The list itself, from the start:
gene symbol | Tnf reporter robust z-score | fewer than 50 cells in well | call
Or1e1f (olfactory receptor family 1 subfamily E member 1F) | -0.39 | enough cells in well | inactive
Or8g36 (olfactory receptor family 8 subfamily G member 36) | 1.5 | enough cells in well | inactive
Fam187a (family with sequence similarity 187, member A) | 1.44 | enough cells in well | inactive
Nedd9 | 1.31 | enough cells in well | inactive
Alyref2 (Aly/REF export factor 2) | -0.77 | enough cells in well | inactive
Ttc23 (tetratricopeptide repeat domain 23) | – | fewer than 50 cells per well; well left out of calls | inactive
Dcaf8 (DDB1 and CUL4 associated factor 8) | -0.03 | enough cells in well | inactive
Zfp608 (zinc finger protein 608) | 2.83 | enough cells in well | inactive
Hrob (homologous recombination factor with OB-fold) | -0.17 | enough cells in well | inactive
Pus7l (pseudouridylate synthase 7-like) | – | fewer than 50 cells per well; well left out of calls | inactive
Mindy1 (MINDY lysine 48 deubiquitinase 1) | – | fewer than 50 cells per well; well left out of calls | inactive
Dusp1 (dual specificity phosphatase 1) | -1.31 | enough cells in well | active
Heph (hephaestin) | -0.24 | enough cells in well | inactive
Cklf (chemokine-like factor) | 0.26 | enough cells in well | inactive
Mutyh (mutY DNA glycosylase) | 0.54 | enough cells in well | inactive
Adamtsl3 (ADAMTS-like 3) | 0.44 | enough cells in well | inactive
Vmn1r54 (vomeronasal 1 receptor 54) | – | fewer than 50 cells per well; well left out of calls | inactive
Tmed3 (transmembrane p24 trafficking protein 3) | – | fewer than 50 cells per well; well left out of calls | inactive
Tfap2c (transcription factor AP-2, gamma) | -0.31 | enough cells in well | inactive
Adam25 (ADAM metallopeptidase domain 25) | 0.13 | enough cells in well | inactive
Dsg1a (desmoglein 1 alpha) | -0.54 | enough cells in well | inactive
Klrc3 (killer cell lectin-like receptor subfamily C, member 3) | 0.72 | enough cells in well | inactive
Cgb (retired record) | 0.8 | enough cells in well | inactive
Tyw1 (tRNA-yW synthesizing protein 1 homolog (S. cerevisiae)) | 4.6 | enough cells in well | active
Slc23a3 | -0.44 | enough cells in well | inactive
Il16 (interleukin 16) | -1.38 | enough cells in well | active
Tafa3 (TAFA chemokine like family member 3) | -0.11 | enough cells in well | inactive
S1pr4 (sphingosine-1-phosphate receptor 4) | -0.33 | enough cells in well | inactive
Chrna7 (cholinergic receptor, nicotinic, alpha polypeptide 7) | -0.6 | enough cells in well | inactive
Cyp2d22 (cytochrome P450, family 2, subfamily d, polypeptide 22) | -0.13 | enough cells in well | inactive
Prdm9 (PR domain containing 9) | -1.07 | enough cells in well | inactive
Trav3-3 (T cell receptor alpha variable 3-3) | -0.01 | enough cells in well | inactive
3110040N11Rik (RIKEN cDNA 3110040N11 gene) | 0.16 | enough cells in well | inactive
Fgf12 (fibroblast growth factor 12) | -0.01 | enough cells in well | inactive
Setdb1 (SET domain, bifurcated 1) | -0.63 | enough cells in well | inactive
Kctd12 (potassium channel tetramerisation domain containing 12) | -1.29 | enough cells in well | inactive
Cd209b (CD209b antigen) | 0.21 | enough cells in well | inactive
B230206H07Rik (RIKEN cDNA B230206H07 gene) | -0.35 | enough cells in well | inactive
Il13ra2 (interleukin 13 receptor, alpha 2) | -0.52 | enough cells in well | inactive
Fbxo8 (F-box protein 8) | 0.75 | enough cells in well | inactive
Xrn1 (5'-3' exoribonuclease 1) | – | fewer than 50 cells per well; well left out of calls | inactive
Zfp105 (zinc finger protein 105) | 1.47 | enough cells in well | inactive
Fam222b (family with sequence similarity 222, member B) | -0.71 | enough cells in well | inactive
Slc39a5 | -1.23 | enough cells in well | inactive
Stimate (STIM activating enhancer) | – | fewer than 50 cells per well; well left out of calls | inactive
Ccdc47 (coiled-coil domain containing 47) | -0.52 | enough cells in well | inactive
Rgs19 (regulator of G-protein signaling 19) | -0.06 | enough cells in well | inactive
Ptger2 (prostaglandin E receptor 2 (subtype EP2)) | 1.21 | enough cells in well | inactive
Ggta1 (glycoprotein galactosyltransferase alpha 1, 3) | -1.5 | enough cells in well | active
Map4k4 (mitogen-activated protein kinase kinase kinase kinase 4) | -0.63 | enough cells in well | inactive
Cdyl (chromodomain protein, Y chromosome-like) | 0.82 | enough cells in well | inactive
Adamts10 (ADAM metallopeptidase with thrombospondin type 1 motif 10) | 0.66 | enough cells in well | inactive
Pmel (premelanosome protein) | -0.1 | enough cells in well | inactive
Xiap (X-linked inhibitor of apoptosis) | -0.19 | enough cells in well | inactive
Acot5 (acyl-CoA thioesterase 5) | -1.83 | enough cells in well | active
Slc6a17 | -0.51 | enough cells in well | inactive
Yipf7 (Yip1 domain family, member 7) | – | fewer than 50 cells per well; well left out of calls | inactive
Surf6 (surfeit gene 6) | -0.25 | enough cells in well | inactive
